Values from PubChem BioAssay AID686938 (Drosophila RNAi Screening Center, 2013).
Purpose: 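Fly genes required for calcium entry once internal stores are emptied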 (primary screen). Cells: Drosophila S2R+ cells. Knock-down reagent: long dsRNA against Drosophila genes, about 0.25 µg dsRNA per well, roughly 10,000 cells. Timing: 5 days of knock-down before the calcium assay. Conditions: thapsigargin (SERCA pump blocker) to empty calcium stores; entry signal taken 4 min after adding it. Read-out: 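Per-well fluo-4 fluorescence in two replicates, unnormalised, measured in resting cells and 4 min after store depletion by the SERCA blocker thapsigargin; ratio of the two present in few wells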. Scale: calcium entry signal: higher = stronger calcium signal after store depletion; resting calcium signal: higher = higher resting calcium signal. Active means: 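Hit if the duplicate-averaged plate z-score for entry over resting signal is under −3; wells with weak total dye signal (Fmax z < −2) or more than 5 off-targets removed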. Meaning of the calls: active = strongly reduced calcium entry; inactive = no strong reduction.
The deposit covers about 23,000 reagents; shown is an unselected part of those with a known target gene and a result. Over the whole deposit, 75 (0.33%) were called active. 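Raw plate signals without normalisation; calls rest on plate z-scores that were not deposited; ratio present for only 364 wells.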 Entries without a mark were called inactive. The numbers tell different reagents against one gene apart. Names joined by + are all predicted targets of the reagent. Not stated in the record: the dose of the treatment.

| target | reagent | calcium entry signal, replicate 1 (fluorescence units) | calcium entry signal, replicate 2 (fluorescence units) | resting calcium signal, replicate 1 (fluorescence units) | resting calcium signal, replicate 2 (fluorescence units) |
| --- | --- | --- | --- | --- | --- |
| CG31688 + CG31687 | 1 | 4.22e7 | 5.48e7 | 1.94e7 | 2.52e7 |
| Ids | 1 | 3.02e7 | 3.01e7 | 1.45e7 | 1.38e7 |
| Cyp4g15 | 1 | 3.60e7 | 5.88e7 | 1.74e7 | 2.79e7 |
| CG7889 | 1 | 4.16e7 | 3.92e7 | 1.97e7 | 2.00e7 |
| Gr39b | 1 | 2.02e7 | 3.72e7 | 1.09e7 | 1.81e7 |
| St2 | 1 | 4.68e7 | 3.51e7 | 2.13e7 | 1.73e7 |
| St2 | 2 | 4.40e7 | 3.79e7 | 2.11e7 | 1.58e7 |
| Ccdc85 | 1 | 1.34e7 | 1.90e7 | 8.85e6 | 1.18e7 |
| Ccdc85 | 2 | 5.73e7 | 2.62e7 | 2.76e7 | 1.21e7 |
| Ser8 | 1 | 3.14e7 | 3.97e7 | 1.67e7 | 1.82e7 |
| CG4021 | 1 | 5.34e7 | 5.63e7 | 2.66e7 | 2.41e7 |
| Tim10 + CG42497 | 1 | 2.39e7 | – | 1.27e7 | – |
| Asph | 1 | 4.66e7 | 5.49e7 | 1.89e7 | 2.46e7 |
| Asph | 2 | 3.16e7 | 3.06e7 | 1.54e7 | 1.58e7 |
| Liprin-alpha | 1 | 2.86e7 | – | 1.55e7 | – |
| CG33964 + CG13175 | 1 | 2.64e7 | 3.19e7 | 1.35e7 | 1.39e7 |
| CG33964 + CG13175 | 2 | 2.29e7 | 3.12e7 | 1.28e7 | 1.38e7 |
| CG33964 + CG13175 | 3 | 2.19e7 | 3.03e7 | 1.12e7 | 1.37e7 |
| KP78b + KP78a | 1 | 4.68e7 | 2.60e7 | 2.68e7 | 1.25e7 |
| KP78b + KP78a | 2 | 3.18e7 | 3.20e7 | 1.90e7 | 1.55e7 |

Sorted by “calcium entry signal, replicate 1 (fluorescence units)” (highest first): some entries from above
| target | reagent | calcium entry signal, replicate 1 (fluorescence units) | calcium entry signal, replicate 2 (fluorescence units) | resting calcium signal, replicate 1 (fluorescence units) | resting calcium signal, replicate 2 (fluorescence units) |
| --- | --- | --- | --- | --- | --- |
| Asph | 1 | 4.66e7 | 5.49e7 | 1.89e7 | 2.46e7 |
| Asph | 2 | 3.16e7 | 3.06e7 | 1.54e7 | 1.58e7 |
| Liprin-alpha | 1 | 2.86e7 | – | 1.55e7 | – |
| CG33964 + CG13175 | 1 | 2.64e7 | 3.19e7 | 1.35e7 | 1.39e7 |
| Tim10 + CG42497 | 1 | 2.39e7 | – | 1.27e7 | – |

The list goes on:
| target | reagent | calcium entry signal, replicate 1 (fluorescence units) | calcium entry signal, replicate 2 (fluorescence units) | resting calcium signal, replicate 1 (fluorescence units) | resting calcium signal, replicate 2 (fluorescence units) |
| --- | --- | --- | --- | --- | --- |
| laza | 1 | 3.05e7 | 4.56e7 | 1.55e7 | 3.29e7 |
| laza | 2 | 3.41e7 | 3.65e7 | 1.81e7 | 1.62e7 |
| CG5758 | 1 | 4.21e7 | 6.19e7 | 2.06e7 | 2.82e7 |
| CG5758 | 2 | 4.59e7 | 3.69e7 | 2.02e7 | 1.57e7 |
| CG15208 | 1 | 2.47e7 | 3.00e7 | 1.13e7 | 1.39e7 |
| CG30047 | 1 | 4.32e7 | 3.80e7 | 2.03e7 | 1.55e7 |
| l(1)G0469 | 1 | 2.12e7 | 2.55e7 | 1.01e7 | 1.15e7 |
| l(1)G0469 | 2 | 2.70e7 | 3.76e7 | 1.43e7 | 1.77e7 |
| CG7276 | 1 | 3.08e7 | 5.72e7 | 1.57e7 | 2.27e7 |
| spi | 1 | 4.06e7 | 5.21e7 | 1.89e7 | 2.15e7 |
| brp | 1 | 3.80e7 | 3.27e7 | 1.84e7 | 1.65e7 |
| brp | 2 | 3.86e7 | 4.24e7 | 1.87e7 | 1.95e7 |
| brp | 3 | 3.55e7 | 3.84e7 | 1.74e7 | 1.71e7 |
| brp | 4 | 3.55e7 | 5.39e7 | 1.64e7 | 2.70e7 |
| CREG | 1 | 3.82e7 | 6.10e7 | 1.79e7 | 9.39e7 |
| Uba1 | 1 | 2.53e7 | 2.51e7 | 1.59e7 | 1.71e7 |
| CG3907 | 1 | 2.65e7 | 3.37e7 | 1.43e7 | 1.55e7 |
| Tsf1 | 1 | 4.63e7 | 3.18e7 | 2.21e7 | 1.37e7 |
| Alp2 | 1 | 4.93e7 | 5.33e7 | 2.56e7 | 2.36e7 |
| CG31777 | 1 | 2.08e7 | 3.44e7 | 1.22e7 | 1.51e7 |
